Measurements reported in PubChem BioAssay AID1259308 (NCATS, 2017).

- Test: 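Candidate targets for better recombinant protein yield in mammalian cells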 (primary screen)
- System: human HEK293 embryonic kidney cells stably expressing firefly luciferase (HEK-CMV-Luc2-Hygro)
- Reagents: single siRNA against human genes, 0.8 pmol siRNA per well
- Duration: 72 h
- Measurement: 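Reporter luminescence and viable-cell signal on separate replicate plates, given as percent of non-targeting control and median/MAD z-scores, plus per-cell luciferase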
- Scale: total luciferase, z-score and total luciferase, % of control: higher = more reporter protein produced
- Hit rule: 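An siRNA counts as active if its total luciferase robust z-score exceeds 3; genes with two or more such siRNAs out of three were retested with fresh siRNAs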
- Calls: active = raised luciferase; inactive = no rise
In all, the deposit lists about 59,000 reagents; below is a random part of them. About 1,510 of them (2.6%) count as active. 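Calls use total luciferase alone and ignore viability, so some active siRNAs may act by altering cell number.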 Entries without a mark were called inactive. The numbers tell different reagents against one gene apart. Not all columns of the deposit are shown.

{"gene": "PIGH (phosphatidylinositol glycan anchor biosynthesis class H)", "reagent no.": 1, "total luciferase, z-score": 1.21, "total luciferase, % of control": 106}
{"gene": "PIGH (phosphatidylinositol glycan anchor biosynthesis class H)", "reagent no.": 2, "total luciferase, z-score": -0.802, "total luciferase, % of control": 65.9}
{"gene": "PIGH (phosphatidylinositol glycan anchor biosynthesis class H)", "reagent no.": 3, "total luciferase, z-score": -0.117, "total luciferase, % of control": 79.6}
{"gene": "NBN (nibrin)", "reagent no.": 1, "total luciferase, z-score": 0.411, "total luciferase, % of control": 90.1}
{"gene": "NBN (nibrin)", "reagent no.": 2, "total luciferase, z-score": 0.687, "total luciferase, % of control": 95.6}
{"gene": "NBN (nibrin)", "reagent no.": 3, "total luciferase, z-score": -0.877, "total luciferase, % of control": 64.5}
{"gene": "PAPSS2 (3'-phosphoadenosine 5'-phosphosulfate synthase 2)", "reagent no.": 1, "total luciferase, z-score": -0.239, "total luciferase, % of control": 77.1}
{"gene": "PAPSS2 (3'-phosphoadenosine 5'-phosphosulfate synthase 2)", "reagent no.": 2, "total luciferase, z-score": -0.479, "total luciferase, % of control": 72.4}
{"gene": "PAPSS2 (3'-phosphoadenosine 5'-phosphosulfate synthase 2)", "reagent no.": 3, "total luciferase, z-score": 0.574, "total luciferase, % of control": 93.3}
{"gene": "RNF19B (ring finger protein 19B)", "reagent no.": 1, "total luciferase, z-score": 0.167, "total luciferase, % of control": 85.2}
{"gene": "RNF19B (ring finger protein 19B)", "reagent no.": 2, "total luciferase, z-score": -0.458, "total luciferase, % of control": 72.8}
{"gene": "RNF19B (ring finger protein 19B)", "reagent no.": 3, "total luciferase, z-score": 1.34, "total luciferase, % of control": 108}
{"gene": "ECPAS (Ecm29 proteasome adaptor and scaffold)", "reagent no.": 1, "total luciferase, z-score": 0.659, "total luciferase, % of control": 95}
{"gene": "ECPAS (Ecm29 proteasome adaptor and scaffold)", "reagent no.": 2, "total luciferase, z-score": -0.251, "total luciferase, % of control": 76.9}
{"gene": "ECPAS (Ecm29 proteasome adaptor and scaffold)", "reagent no.": 3, "total luciferase, z-score": -0.472, "total luciferase, % of control": 72.5}
{"gene": "EID1 (EP300 interacting inhibitor of differentiation 1)", "reagent no.": 1, "total luciferase, z-score": 0.122, "total luciferase, % of control": 84.3}
{"gene": "EID1 (EP300 interacting inhibitor of differentiation 1)", "reagent no.": 2, "total luciferase, z-score": -0.269, "total luciferase, % of control": 76.5}
{"gene": "EID1 (EP300 interacting inhibitor of differentiation 1)", "reagent no.": 3, "total luciferase, z-score": -1.21, "total luciferase, % of control": 57.8}
{"gene": "DEFB126 (defensin beta 126)", "reagent no.": 1, "total luciferase, z-score": 1.03, "total luciferase, % of control": 102}
{"gene": "DEFB126 (defensin beta 126)", "reagent no.": 2, "total luciferase, z-score": -1.58, "total luciferase, % of control": 50.4}
{"gene": "DEFB126 (defensin beta 126)", "reagent no.": 3, "total luciferase, z-score": 0.381, "total luciferase, % of control": 89.5}

Limited to “total luciferase, % of control”, for 2 of the entries above:
PAPSS2 (3'-phosphoadenosine 5'-phosphosulfate synthase 2) #3	93.3
RNF19B (ring finger protein 19B) #1	85.2
